PubChem BioAssay AID743454 – Peter MacCallum Cancer Centre, 2014
Assay: 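Search for knock-downs that restore vorinostat killing in resistant colon cancer cells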 (primary screen). Cell system: human HCT116-VR colon cancer cells, selected for vorinostat resistance. Reagents: siRNA pool against human genes, 40 nM siRNA pool. Duration: vorinostat for 24 h, read-out about 72 h after transfection. Challenge: vorinostat at 2.5 µM final. Measured: 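Two measures, CellTiter-Fluor viability and luminescent caspase 3/7 activity, each as fold change against same-plate mock wells, mean of duplicates, then screen-wide robust z-score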. Direction: viability robust z-score: higher = more viable cells than screen typical; caspase robust z-score: higher = more caspase 3/7 activity than screen typical. Call rule: 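a knock-down is a hit when classed RV1 or RV2 for lowered viability, or CA1 or CA2 for caspase activation; those lethal without drug were dropped; hits were retested singly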.
The deposit covers about 18,000 reagents; shown is an unselected part. In the full data, 450 (2.5%) are marked active. 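Single biological run; no consistent viability z cut-off exists, so the class columns, not z-scores, define the calls.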

gene,viability hit class,caspase hit class,viability robust z-score,caspase robust z-score,activity call
KCTD15 (GeneID 79047),no change,no change,-0.98,0.06,inactive
PLA2G2E (GeneID 30814),no change,no change,-0.76,-0.26,inactive
C2orf68 (GeneID 388969),no change,no change,-0.47,4.67,inactive
TRIL (GeneID 9865),no change,CA1 (caspase activation),0.08,7.55,active
ZNF558 (GeneID 148156),no change,no change,0.04,-0.42,inactive
NID2 (GeneID 22795),no change,no change,0.12,-1.12,inactive
GCGR (GeneID 2642),no change,no change,0.34,-0.71,inactive
LYPD2 (GeneID 137797),no change,no change,-1.13,0.71,inactive
ILF3 (GeneID 3609),no change,no change,-2.16,0.78,inactive
OR51F1 (GeneID 256892),no change,no change,-0.2,-0.45,inactive
KMO (GeneID 8564),no change,no change,-0.17,0.16,inactive
PAX3 (GeneID 5077),no change,no change,0.74,-0.37,inactive
CYBRD1 (GeneID 79901),no change,no change,-1.02,-0.56,inactive

Entries listed so far marked active:
gene,viability hit class,caspase hit class,viability robust z-score,caspase robust z-score,activity call
TRIL (GeneID 9865),no change,CA1 (caspase activation),0.08,7.55,active

Next results follow:
gene,viability hit class,caspase hit class,viability robust z-score,caspase robust z-score,activity call
CACNG4 (GeneID 27092),no change,no change,2.13,2.7,inactive
PDE4A (GeneID 5141),no change,no change,0.66,1.52,inactive
EFEMP2 (GeneID 30008),no change,no change,0.62,4.78,inactive
TOMM20 (GeneID 9804),no change,no change,-1.31,2.34,inactive
FANCA (GeneID 2175),no change,CA1 (caspase activation),-2.17,9.66,active
CHRNA6 (GeneID 8973),no change,no change,0,-1.03,inactive
DENND2C (GeneID 163259),no change,no change,0.7,-0.42,inactive
EVX1 (GeneID 2128),no change,no change,0.24,0.9,inactive
NTNG1 (GeneID 22854),no change,no change,0.94,-1.04,inactive
ESAM (GeneID 90952),no change,no change,-0.74,1.34,inactive
